Source: article PMC9864193
No constants are given. Whether binding was seen depends on the method and setting. In cells and extracts the contact can be indirect. Some results given as binding are weak or reduced against the parent protein; the word gives no strength.

What was measured:
[1] = molecular target: epidermal growth factor receptor (EGFR) (human (endogenous in HLaC-79 cells and LSCC patient tissue)) (UniProt P00533); test: co-IP; HLaC-79 cellular extracts in IP buffer (50 mM Tris-HCl pH 7.5, 250 mM NaCl, 5 mM EDTA, 50 mM NaF, 0.1 mM NaVO4, 0.1% Triton X-100, 5% glycerol); IP overnight at 4 °C with anti-EGFR rabbit polyclonal antibody beads, rabbit IgG beads as negative control; five washes; immunoblot for SMN
[2] = molecular target: epidermal growth factor receptor (EGFR) (human (endogenous in HLaC-79 cells and LSCC patient tissue)) (UniProt P00533); test: proximity ligation; in situ PLA (Duolink) on de-paraffined 4 μm FFPE sections of LSCC tissue from patient #5 with anti-SMN mouse monoclonal and anti-EGFR rabbit polyclonal antibodies; negative control with only one primary antibody
[3] = molecular target: epidermal growth factor receptor (EGFR) (human (endogenous in HLaC-79 cells and LSCC patient tissue)) (UniProt P00533); test: proximity ligation; in situ PLA (Duolink) in fixed HLaC-79 cells with anti-SMN mouse monoclonal and anti-EGFR rabbit polyclonal antibodies

Measured: binding

Survival Motor Neuron (SMN) protein (from UniProt Q16637 1-294)
binds: all assays above
